Assay results reported in US20130090280A1, “CLEANING COMPOSITIONS AND METHODS” (HONEYWELL INTERNATIONAL INC., priority 2011, published 2013).

Assay: environmental properties of solvents

In the case of dichloropentafluoropropane [HCFC-225], the “ODP (Ozone Depletion Potential)” value is reported as 0.03.
